Experimental data taken from the supplement of paper PMC10338343.
± gives the standard deviation. Only a part is listed here, and it is no random draw. Many entries were measured with a wide error.

System: MIWI (PIWIL1) piRISC loaded with L1MC piRNA (30 nt)
Assay: pre-steady-state target cleavage rate (min^-1); MIWI and MILI are mouse PIWI proteins and EfPiwi is from a freshwater sponge; tags in brackets are library labels; higher = faster piRNA-guided slicing of the target
Details: guide: L1MC piRNA 5'p-UAACUAAAUACUAUGCAAGCUGUAGGUCCU
Outline: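 Three pooled Cleave-'n-Seq trials supplied the data, with k3 capped at 0.0001 min^-1. In each, […] transcribed, DNA-blocked target RNA library and 1 nM active affinity-purified piRISC with one synthetic guide reacted in HEPES–potassium acetate buffer at 33 °C for 0–8 or 0–960 min, with or without 500 nM GTSF1 partner protein. Uncleaved targets were sequenced and normalised to depth and to weakly complementary targets. A burst-and-steady-state fit provided the pre-steady-state cleavage rate.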

[1] = auxiliary factor: none (no GTSF1)
[2] = auxiliary factor: 500 nM mouse GTSF1
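Also: 1 nM active piRISC with 0.1 nM target library at 33 °C single turnover.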

Row | Sequence | pre-steady-state target cleavage rate [1] | pre-steady-state target cleavage rate [2]
1 | UGGACCUACAGCUUCCUUAGUAUUUAGUUA | 0.00189 ± 0.0026 | –
2 | UCCACCAACAGCUUGCAUAGUAUUUUCAAA | 0.00226 ± 0.0039 | –
3 | AGGACCUACAGCUUGCAUAGAUUUAGUUA | 0.00157 ± 0.0067 | –
4 | UGGACCUACAGCUUGCAUAGUAUUAUCAAA | 0.00173 ± 0.0043 | –
5 | UGGACCUACAGCUACCAUAGUAUUUACAAA | 0.000211 ± 0.011 | –
6 | UCGACCUACAGCUUGCAUAGAAUUUUCAAA | 0.00141 ± 0.0054 | –
7 | UCGACCUACAGCUUCGUUAGUAUUUACAAA | 0.000624 ± 0.0088 | –
8 | UCCACCUACAGCUUGCAAUCAUAAAUCAAA [g14:g27:cont:t1A] | 0.000468 ± 0.015 | –
9 | UGGACCUACAGCUUGCAUAGUAUUAUGUAA | 0.00211 ± 0.0033 | –
10 | UGGACCUACAGCUUGCAUUCAAUUUAGUAA | 0.000494 ± 0.0093 | –
11 | UCGACCUACAGCUUGCUAAGUAUUUAGUAA | 0.00169 ± 0.0032 | –
12 | UCCACCUAGAGCUUCCAUAGUAUUUAGUUA | 0.00137 ± 0.0035 | –
13 | UCCUGGAUGUCGAUGCAUAGUAUUUAAGUUA | 0.00128 ± 0.0058 | –
14 | UCCACCUACAGCUUGCUAAGUAUUUUCAAA | 0.000195 ± 0.016 | –
15 | AGGACCUACAGCUUCCAUAGUAAUUAGUUA | 0.00181 ± 0.0039 | –
16 | AGGACCUACAGCUUGGAUAGUAUUUUCAAA | 0.00159 ± 0.0045 | –
17 | UGGACCUACAGCUUCCAAAGUAUUUAGUUA | 0.000726 ± 0.0038 | –
18 | AGGACCUACAGCUUGCACUAGUAUUUAGUUA | 0.00102 ± 0.0077 | –
19 | AGGACCUACAGCUACCAUAGUAUUUAGUAA | 0.00187 ± 0.0043 | –
20 | UCCUGGAUGAGCUUGCAAUCUAUUUAGUUA | 0.000723 ± 0.0043 | –
21 | UCCUGGAUGUCGAACGAUACUUUUUAGUUA | 0.000195 ± 0.026 | –
22 | AGGACCUACAGGAUGCAUAGUAUUUACAAA | 0.00152 ± 0.0033 | –
23 | UGGACCUACAGCUUGCAUAGUAUAUUAGUUA | – | 1.33 ± 0.079
24 | AGGUCCUACAGCUUGCAAAGUAUUUAGUUA | – | 1.35 ± 0.043

Complete entries from above. Values in the order: pre-steady-state target cleavage rate [1]	pre-steady-state target cleavage rate [2]
UCCACCAACAGCUUGCAUAGUAUUUUCAAA as listed: 0.00226 ± 0.0039	–
UGGACCUACAGCUUGCAUAGUAUUAUCAAA as listed: 0.00173 ± 0.0043	–

Continuation.

Row | Sequence | pre-steady-state target cleavage rate [1] | pre-steady-state target cleavage rate [2]
25 | AGGACCUACAGCAAGCAUAGUAUUUAGAAA | 0.00253 ± 0.0047 | –
26 | UCCACCUACAGCUUGCUUAGUAUUUUCAAA | 0.000778 ± 0.0065 | –
27 | UCGACCUACAGCUUGGUAAGUAUUUAGUAA | 0.000695 ± 0.0086 | –
28 | UGCUGCUACAGCUUGCAUAGUAUUUACAAA | 0.00236 ± 0.0024 | –
29 | UCGACCUACAGCUUGGUUAGUAUUUUCAAA | 0.000669 ± 0.0056 | –
30 | UCCUGGAUCAGCUUGCAUAGUAUAAUCAAA [g8:g22:cont:t1A] | 0.000629 ± 0.0062 | –
31 | UCCACCUACAGCAUGCAUAGUAUUUACAAA | 0.00106 ± 0.0054 | –
32 | AGGACCUACAGCUUGCAUAGAUAUUAGUUA | 0.00215 ± 0.0044 | –
33 | AGGACCUACAGCUUCGAUAGUAUUUAGUAA | 0.000612 ± 0.0042 | –
34 | AGGACCUACAGCUUGCAAUCUAUUUAGAAA | 0.000343 ± 0.0072 | –
35 | UCGACCUACAGCUUCCAUAGUAUUUUCAAA | 0.000632 ± 0.0089 | –
36 | UCCUGGAUCAGCUUGCGAUAGUAUUUAGUUA | 0.00226 ± 0.003 | –
37 | UCGACCUACAGCUUGCAUAGUUAAUACAAA | 0.00094 ± 0.0095 | –
38 | AGGACCUACAGCUUGCAUUCAAUUUAGUUA | 0.00106 ± 0.0071 | –
39 | AGGACCUACAGCUUCCAAAGUAUUUAGUUA | 0.00137 ± 0.0025 | –
40 | AGCACCUACAGCUUGCAUAGUAUUUACAAA | 0.00384 ± 0.0041 | –
41 | UCCACCUACAGCUUCCAUAGUAAUUAGUUA | 0.00127 ± 0.006 | –
42 | AGGACCUACAGCUUGCUAAGUAUUUAGAAA | 0.00087 ± 0.0072 | –
43 | UCCACCUACAGCUUGCAUAGUUAAUAGUAA | 0.00117 ± 0.0051 | –
44 | UCCUGGAUGUCGAACGUAAGUAUUUACAAA | 0.000225 ± 0.016 | –
45 | UCCUGGAACAGCUUGCAUAGUAUAUACAAA | 0.00138 ± 0.0055 | –
46 | UCCACCUACACGAUGCAUAGUAUUUACAAA | 0.000578 ± 0.012 | –
47 | UCGACCUACAGCUUGCAUAGUAAAAAGUAA | 0.0012 ± 0.0069 | –
48 | UCGACCUACAGCUUGCUAUCAUAAAUCAAA [g15:g28:cont:t1A] | 0.000135 ± 0.028 | –
